This passage reports binding results from publication PMC9525703.

The chains behind the UniProt entries cited, without tags or fusion partners. Where a name states a change or a piece, a line headed by the entry shows the natural chain unless it says otherwise.
UniProt Q9NVX7: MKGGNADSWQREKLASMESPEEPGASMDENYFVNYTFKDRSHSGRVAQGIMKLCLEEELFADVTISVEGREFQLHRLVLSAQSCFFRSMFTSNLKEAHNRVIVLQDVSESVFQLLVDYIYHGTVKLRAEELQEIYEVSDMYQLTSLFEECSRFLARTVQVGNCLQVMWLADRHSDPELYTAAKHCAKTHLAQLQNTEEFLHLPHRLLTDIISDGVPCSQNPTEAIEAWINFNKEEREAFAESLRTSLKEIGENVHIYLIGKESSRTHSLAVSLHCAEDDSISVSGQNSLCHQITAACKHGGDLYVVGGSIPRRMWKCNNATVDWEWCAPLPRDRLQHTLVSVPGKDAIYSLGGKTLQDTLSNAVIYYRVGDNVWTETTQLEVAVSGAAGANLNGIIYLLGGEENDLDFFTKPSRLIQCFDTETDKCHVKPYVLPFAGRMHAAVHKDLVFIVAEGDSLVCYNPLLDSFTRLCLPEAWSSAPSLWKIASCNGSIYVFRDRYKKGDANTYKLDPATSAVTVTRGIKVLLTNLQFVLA
UniProt Q13547: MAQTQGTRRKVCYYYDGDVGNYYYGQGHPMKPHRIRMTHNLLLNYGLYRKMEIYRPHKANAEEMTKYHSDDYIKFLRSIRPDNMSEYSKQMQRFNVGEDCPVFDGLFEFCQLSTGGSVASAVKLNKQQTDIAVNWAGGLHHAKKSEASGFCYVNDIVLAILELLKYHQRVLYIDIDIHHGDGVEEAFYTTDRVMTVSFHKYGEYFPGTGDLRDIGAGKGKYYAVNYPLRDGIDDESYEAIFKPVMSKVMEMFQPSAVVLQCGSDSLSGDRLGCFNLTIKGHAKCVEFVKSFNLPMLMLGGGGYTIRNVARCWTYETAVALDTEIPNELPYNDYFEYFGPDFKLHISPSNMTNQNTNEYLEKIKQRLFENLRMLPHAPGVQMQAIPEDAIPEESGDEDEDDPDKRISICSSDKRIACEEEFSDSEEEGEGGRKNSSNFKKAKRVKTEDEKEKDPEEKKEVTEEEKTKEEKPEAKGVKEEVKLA
UniProt Q9UKL0: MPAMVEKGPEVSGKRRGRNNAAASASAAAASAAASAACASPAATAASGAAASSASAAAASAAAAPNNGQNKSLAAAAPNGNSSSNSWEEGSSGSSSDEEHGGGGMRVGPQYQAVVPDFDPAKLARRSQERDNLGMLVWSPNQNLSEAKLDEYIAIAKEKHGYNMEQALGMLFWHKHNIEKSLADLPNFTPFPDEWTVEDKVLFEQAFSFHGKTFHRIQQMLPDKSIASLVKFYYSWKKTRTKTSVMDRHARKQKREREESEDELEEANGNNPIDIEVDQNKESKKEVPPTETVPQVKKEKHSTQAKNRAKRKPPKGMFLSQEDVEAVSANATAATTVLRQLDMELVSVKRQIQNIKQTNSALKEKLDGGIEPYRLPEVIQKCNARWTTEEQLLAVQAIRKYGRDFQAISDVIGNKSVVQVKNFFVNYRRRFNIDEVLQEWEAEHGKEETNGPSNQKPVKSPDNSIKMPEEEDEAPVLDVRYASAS
UniProt Q5VTD9: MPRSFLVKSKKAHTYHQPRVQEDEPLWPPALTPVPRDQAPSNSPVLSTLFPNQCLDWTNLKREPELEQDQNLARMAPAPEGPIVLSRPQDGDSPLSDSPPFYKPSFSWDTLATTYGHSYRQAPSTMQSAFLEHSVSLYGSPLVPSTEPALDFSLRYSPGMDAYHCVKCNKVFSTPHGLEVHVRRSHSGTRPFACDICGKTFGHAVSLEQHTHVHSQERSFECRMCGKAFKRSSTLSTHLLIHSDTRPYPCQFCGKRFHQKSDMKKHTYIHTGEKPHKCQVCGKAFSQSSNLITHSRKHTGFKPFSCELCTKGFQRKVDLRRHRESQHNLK
UniProt Q92769: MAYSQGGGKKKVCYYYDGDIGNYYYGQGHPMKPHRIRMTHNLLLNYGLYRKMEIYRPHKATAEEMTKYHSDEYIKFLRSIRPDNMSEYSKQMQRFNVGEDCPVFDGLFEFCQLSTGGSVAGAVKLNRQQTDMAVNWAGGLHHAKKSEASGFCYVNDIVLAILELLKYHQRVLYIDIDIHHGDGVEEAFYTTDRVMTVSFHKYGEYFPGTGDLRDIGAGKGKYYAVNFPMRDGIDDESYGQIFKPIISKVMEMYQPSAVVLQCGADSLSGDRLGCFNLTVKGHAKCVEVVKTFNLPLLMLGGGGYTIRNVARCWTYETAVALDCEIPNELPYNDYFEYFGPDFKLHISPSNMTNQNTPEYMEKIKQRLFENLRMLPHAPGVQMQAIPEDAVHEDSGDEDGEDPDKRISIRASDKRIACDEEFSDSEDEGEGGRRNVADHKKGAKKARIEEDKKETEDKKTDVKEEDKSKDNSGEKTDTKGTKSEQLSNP
UniProt Q99684: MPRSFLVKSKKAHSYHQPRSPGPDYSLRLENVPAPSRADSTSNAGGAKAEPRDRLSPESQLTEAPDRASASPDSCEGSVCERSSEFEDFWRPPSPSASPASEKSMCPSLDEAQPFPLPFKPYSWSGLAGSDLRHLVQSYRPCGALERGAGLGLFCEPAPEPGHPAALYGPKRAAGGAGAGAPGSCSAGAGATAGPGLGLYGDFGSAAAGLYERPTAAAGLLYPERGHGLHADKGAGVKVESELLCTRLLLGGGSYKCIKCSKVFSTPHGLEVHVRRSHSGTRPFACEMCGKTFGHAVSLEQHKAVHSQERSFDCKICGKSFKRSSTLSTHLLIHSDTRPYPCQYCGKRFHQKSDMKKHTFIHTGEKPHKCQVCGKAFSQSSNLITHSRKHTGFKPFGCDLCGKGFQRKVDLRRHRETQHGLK

These are yes or no findings as the source states them, for the method shown. In cells and extracts the contact can be indirect. These calls come from enrichment with a bait or labelling near it, and not all partners need be listed. A no says only that the protein was not detected with the bait.

The target of experiment [1] is Flag-KBTBD4^P311PP, pcDNA3.1(+) construct (human) (UniProt Q9NVX7). Put plainly: affinity purification with mass spectrometry; HEK293T transfected with Flag-KBTBD4 wild type or mutants; 100 nM MLN4924 for 4 h; ANTI-FLAG M2 Affinity Gel, eluted with 3xFLAG peptide; tryptic digest, LC-MS/MS.
In experiment [2] the target is Flag-KBTBD4^R313PRR, pcDNA3.1(+) construct (human) (UniProt Q9NVX7). Described as above.

For “HDAC1 (histone deacetylase 1) (from UniProt Q13547 1-482)”, the binding result in experiment [1] and in experiment [2] was “binds” in each case.
As for “CoREST (REST Corepressor), endogenous in HEK293T (from UniProt Q9UKL0 1-485)”, the binding result in experiment [1] and in experiment [2] was “binds” in each case.
With GFI1B (from UniProt Q5VTD9 1-330), the binding entry in experiment [1] and in experiment [2] was “no binding” throughout.
On to “HDAC2 (histone deacetylase 2) (from UniProt Q92769 1-488)”, for which the binding result in experiment [1] and in experiment [2] was “binds” in each case.
For the substance “Growth Factor Independent Protein 1 (GFI1) (from UniProt Q99684 1-422)”, the binding result in experiment [1] and in experiment [2] was “no binding” in each case.
